Experimental data reported in doi:10.1101/2023.12.21.572759.
Where two headings read alike, the source gives them in different places. These are yes or no findings as the source states them, for the method shown. Some entries that bind do so weakly or less than the wild type.

Tests used:
[1] = biological target: T1, mouse ASIC1a K105C/N414K (mouse) (UniProt Q6NXK8); experiment: voltage-clamp fluorometry
T1 sequence (chain, Alexa Fluor 488 C5-maleimide on C105 (K105C), in the VCF experiments): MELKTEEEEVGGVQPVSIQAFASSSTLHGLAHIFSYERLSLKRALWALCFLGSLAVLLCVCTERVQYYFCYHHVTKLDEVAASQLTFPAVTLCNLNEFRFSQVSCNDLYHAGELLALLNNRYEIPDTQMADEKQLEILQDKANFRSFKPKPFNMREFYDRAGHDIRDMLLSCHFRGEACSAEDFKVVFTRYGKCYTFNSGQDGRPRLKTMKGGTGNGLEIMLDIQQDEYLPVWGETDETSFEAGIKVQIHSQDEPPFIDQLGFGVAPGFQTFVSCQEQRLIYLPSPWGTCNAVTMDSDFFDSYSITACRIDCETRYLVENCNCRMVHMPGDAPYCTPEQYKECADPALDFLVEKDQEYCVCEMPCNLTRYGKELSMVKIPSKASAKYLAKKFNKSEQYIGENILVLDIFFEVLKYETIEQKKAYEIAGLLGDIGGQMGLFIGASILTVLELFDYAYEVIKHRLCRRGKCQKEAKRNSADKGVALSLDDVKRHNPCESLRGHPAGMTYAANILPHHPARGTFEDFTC

[2] = biological target: T1, mouse ASIC1a K105C/N414K (mouse); experiment: voltage-clamp fluorometry; remark: listed apart in the source

With “Big dynorphin (from UniProt P01213 207-238) (peptide)” the binding [1] was “binds”.

For EDCIPKWKGCVNRHGDCCEGLECWKRRRSFEVCVPKTPKT (peptide, UniProt P60514 1-40) [PcTx1], the binding [2] was “binds”.
